Source: article PMC3216068

Amino acid sequences for entries named in this document (tags omitted). A change or cut given only in a name is not applied to a line headed by its entry.
UniProt P61956: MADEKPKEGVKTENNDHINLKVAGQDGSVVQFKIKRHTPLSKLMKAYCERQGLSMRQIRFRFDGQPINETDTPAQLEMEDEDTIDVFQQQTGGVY
UniProt Q02724: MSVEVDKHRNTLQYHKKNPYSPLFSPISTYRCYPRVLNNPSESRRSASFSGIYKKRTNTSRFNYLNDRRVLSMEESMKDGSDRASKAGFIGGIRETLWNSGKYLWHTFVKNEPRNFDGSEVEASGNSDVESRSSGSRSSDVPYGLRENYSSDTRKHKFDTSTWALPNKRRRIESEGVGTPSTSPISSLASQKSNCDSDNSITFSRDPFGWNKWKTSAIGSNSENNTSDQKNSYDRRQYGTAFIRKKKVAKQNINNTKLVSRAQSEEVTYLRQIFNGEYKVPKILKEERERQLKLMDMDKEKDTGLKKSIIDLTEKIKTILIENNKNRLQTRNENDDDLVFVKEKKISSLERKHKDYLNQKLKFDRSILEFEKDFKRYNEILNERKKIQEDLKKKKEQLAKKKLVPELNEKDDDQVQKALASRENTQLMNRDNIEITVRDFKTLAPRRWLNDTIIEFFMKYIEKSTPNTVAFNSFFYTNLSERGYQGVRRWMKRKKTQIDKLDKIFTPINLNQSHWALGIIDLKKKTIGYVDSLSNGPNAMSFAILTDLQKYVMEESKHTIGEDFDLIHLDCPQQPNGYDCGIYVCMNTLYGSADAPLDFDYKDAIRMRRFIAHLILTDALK

Experiments:
[1] = biological target: SUMO2 immobilized on agarose beads (human) (UniProt P61956); assay: pull-down; SUMO2 immobilised on agarose beads (Boston Biochem) incubated with nondenaturing yeast whole-cell extracts expressing GFP-tagged Ulp1(3) constructs; anti-GFP Western blot; only the target purified
[2] = biological target: Smt3 fused to the Gal4 DNA-binding domain (S. cerevisiae) [SUMO: Q12306]; assay: two-hybrid; Gal4-AD fusions of ULP1 mutants in pOAD, Gal4-BD fusion of SMT3 in pOBD, AH109 reporter strain; scored on dropout media lacking adenine (Figure 5)

binding [1]	binding [2]	Substance
no binding	–	GFP-tagged Ulp1(3)^(C580S)-ΔSBS (from UniProt Q02724) (domain or fragment)
–	binds weakly	Ulp1(3)^(C580S), Gal4 activation domain fusion (from UniProt Q02724) (domain or fragment)
–	no binding	Ulp1(3)^(D451N C580S), Gal4 activation domain fusion (from UniProt Q02724) (domain or fragment)
–	binds	Ulp1(3)^(ts C580S), Gal4 activation domain fusion (from UniProt Q02724) (domain or fragment)

These are yes or no findings as the source states them, for the method shown. For some of these results: Binding can be weak; no strength is given. For some of these results: In cells and extracts the contact can be indirect.
